Literature values as cited in patent US20210214303A1, “SCORPION VENOM BENZOQUINONE DERIVATIVES AND USES THEREOF” (priority 2018, published 2021).
Values after ≈ are worked out from the molar mass of the structure shown. At least one compound was matched to its structure with a doubt left.

System: M. tuberculosis
Settings: related compounds from the literature (Tran et al. 2004); cited from earlier work

SMILES: CC(C)=CCC1=C(O)C(=O)c2ccccc2C1=O [lapachol]
- MIC: 100 µg/mL (≈ 413 µM)
